No constants are given. Whether binding was seen depends on the method and setting. Some results given as binding are weak or reduced against the parent protein; the word gives no strength. Sequences can lack the tags named with a protein.

Chains of the proteins cited; added tags and fusions are not shown.
UniProt P61073: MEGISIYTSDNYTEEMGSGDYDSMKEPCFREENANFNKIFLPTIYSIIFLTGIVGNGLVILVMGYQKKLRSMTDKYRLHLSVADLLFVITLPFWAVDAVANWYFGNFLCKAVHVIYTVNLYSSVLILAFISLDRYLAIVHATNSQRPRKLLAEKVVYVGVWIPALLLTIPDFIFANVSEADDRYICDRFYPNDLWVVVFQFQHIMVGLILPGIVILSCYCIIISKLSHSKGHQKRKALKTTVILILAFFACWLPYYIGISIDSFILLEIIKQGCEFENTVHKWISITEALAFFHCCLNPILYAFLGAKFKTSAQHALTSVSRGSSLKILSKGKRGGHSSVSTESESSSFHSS

Test [1] deals with human CXCR4 receptor expressed transiently in HEK293 cells (human) (UniProt P61073). Put plainly: flow cytometry on HEK293 cells transfected with human CXCR4. A general note: In flow cytometry, cells or beads pass a laser one at a time.
Test [2] concerns the target CXCR4 fused to the SNAP tag, labelled with terbium, expressed in HEK293 cells (human) (UniProt P61073). Put plainly: FRET displacement of SDF1-d2 (12 nM) from Tb-labelled SNAP-CXCR4 on HEK293 cells.
Test [3] has as its target human CXCR4 receptor expressed transiently in HEK293 cells (human) (UniProt P61073). Put plainly: flow cytometry on HEK293 cells transfected with CXCR4.
For test [4] the target is unchanged. Put plainly: flow cytometry on HEK293 cells transfected with CXCR4, VHH at 1 µM, anti-His-APC.

B1: 3SM5-his tag (VH domain of the heavy chain of antibody CH65, with myc tag and his tag) (protein)
VH: MEVQLVQSGAEVKKPGASVKVSCKASGYTFTDYHINWVRQAPGQGLEWMGWIHPNSGDTNYAQKFQGWVTMTRDTAISTAYMEVNGLKSDDTAVYYCARGGLEPRSVDYYYYGMDVWGQGTTVTVSSEQKLISEEDLEHHHHHH
In the case of B1, the binding result in test [1], in test [2] and in test [3] was “binds” in each case.

B2: 238D4-his tag (VHH)
VHH: EVQLMESGGGLVQAGGSLRLSCAASGRTFNNYAMGWFRRAPGKEREFVAAITRSGVRSGVSAIYGDSVKDRFTISRDNAKNTLYLQMNSLKPEDTAVYTCAASAIGSGALRRFEYDYSGQGTQVTVSS
With B2, the binding result in test [3] and in test [4] was “binds” in each case.

(Values after patent publication US20200185064A1.)
